Results are given in words; binding and its absence hold for the method and conditions named. In cells and extracts the contact can be indirect. Some results given as binding are weak or reduced against the parent protein; the word gives no strength.
Target: T1, RAD21 (RAD21 cohesin complex component) (human (endogenous in the human SSC line)) (UniProt O60216)
T1 sequence: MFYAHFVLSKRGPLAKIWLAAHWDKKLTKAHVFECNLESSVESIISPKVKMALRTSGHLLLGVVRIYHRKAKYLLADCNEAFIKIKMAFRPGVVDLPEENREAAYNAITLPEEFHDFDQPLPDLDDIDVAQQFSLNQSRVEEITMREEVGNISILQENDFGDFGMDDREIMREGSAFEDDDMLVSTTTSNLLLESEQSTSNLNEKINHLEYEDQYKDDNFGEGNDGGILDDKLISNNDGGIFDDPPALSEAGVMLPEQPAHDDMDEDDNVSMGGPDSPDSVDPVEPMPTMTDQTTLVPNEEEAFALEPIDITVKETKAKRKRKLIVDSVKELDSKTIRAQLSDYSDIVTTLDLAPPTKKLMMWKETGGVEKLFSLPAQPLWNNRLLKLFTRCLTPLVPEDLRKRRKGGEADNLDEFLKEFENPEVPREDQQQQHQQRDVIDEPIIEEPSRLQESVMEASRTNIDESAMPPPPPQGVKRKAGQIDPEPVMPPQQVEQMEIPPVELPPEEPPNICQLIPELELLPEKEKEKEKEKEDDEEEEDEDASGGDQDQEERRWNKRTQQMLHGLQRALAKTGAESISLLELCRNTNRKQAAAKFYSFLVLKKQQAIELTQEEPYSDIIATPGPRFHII
Test: co-IP; endogenous proteins; human SSC line lysed in the binding/washing buffer of the Pierce IP/Co-IP kit; 10 ug anti-YAP1 or anti-RAD21 antibody overnight at 4 °C, protein A/G magnetic beads 2 h at room temperature; Western blot

- binding: binds
Substance: Yes1-associated transcriptional regulator (YAP1) (from UniProt P46937-9 1-508)

Source: publication PMC11628678
